At least one compound was matched to its structure with a doubt left.
Test system: complete Freund's adjuvant (CFA)-evoked heat hyperalgesia
Experiment: CFA-evoked heat hyperalgesia (paw withdrawal latency, Hargreaves)
Type: in vivo, mice
Details: intrathecal, post-CFA day 3; DHA and EPA 10 μg
Description: Animals and pain models. Adult CD1 mice (male, 25-32 g) were used for most experiments. Knockout mice were used lacking TNFR1/II (Tnfrsf1a/1b^−/−) and TRPV1 (Trpv1^−/−) and C57BL/6 wild-type control mice, all from Jackson, for some experiments. All animal procedures performed in this study were approved by the Harvard Medical Area Standing Committee on Animals. 20 μl of diluted formalin (5%), carrageenan (CRG, 1%), or complete Freund's adjuvant (CFA) were injected into the plantar surface of a hindpaw to produce acute, persistent, or chronic inflammatory pain, respectively. Postoperative pain was also produced through hindpaw incision^36 and neuropathic pain by ligation of the spinal nerve^37.
Reagents and administration. RvE1 and RvD1 were suspended in 1% or 10% ethanol as vehicle for investigating acute (<1 h) and persistent (1-6 h) effects of resolvins on inflammatory pain. […]
Behavioral analysis. […] Formalin-evoked spontaneous inflammatory pain was assessed by measuring duration (seconds) animals spent on licking/flinching the affected paws every 5 min for 45 min. Capsaicin-induced spontaneous pain was aslo assessed for 10 min. […] It was determined the 50% paw withdrawal threshold using Dixon's up-down method^40. […] The percent maximal possible antinociceptive effect (% M.P.E) was calculated using the equation % M.P.E.=[(PL−BL2)/(BL1−BL2)]×100. […]

With `CC/C=C\C/C=C\C/C=C\C/C=C\C/C=C\C/C=C\CCC(=O)O` [DHA, docosahexaenoic acid, reference compound] the CFA-evoked heat hyperalgesia was “reduced CFA-evoked heat hyperalgesia”.

For `CC/C=C\C/C=C\C/C=C\C/C=C\C/C=C\CCCC(=O)O` [EPA, eicosapentaenoic acid, reference compound], the CFA-evoked heat hyperalgesia was “reduced CFA-evoked heat hyperalgesia”.
